# Source: patent US5434066
# Protein sequences can lack the tags named with them. For some assays here: Construct, isoform or probe ends are uncertain for at least one entry.
# Assays:
# [1] = target: T1, Cre recombinase (Bacteriophage P1) (UniProt P06956); experiment: enzyme reaction in vitro; conditions: in vitro Cre excision of the kanR gene between directly repeated lox sites, giving pZL; protein in an extract
# T1 sequence (looked up, limits assumed): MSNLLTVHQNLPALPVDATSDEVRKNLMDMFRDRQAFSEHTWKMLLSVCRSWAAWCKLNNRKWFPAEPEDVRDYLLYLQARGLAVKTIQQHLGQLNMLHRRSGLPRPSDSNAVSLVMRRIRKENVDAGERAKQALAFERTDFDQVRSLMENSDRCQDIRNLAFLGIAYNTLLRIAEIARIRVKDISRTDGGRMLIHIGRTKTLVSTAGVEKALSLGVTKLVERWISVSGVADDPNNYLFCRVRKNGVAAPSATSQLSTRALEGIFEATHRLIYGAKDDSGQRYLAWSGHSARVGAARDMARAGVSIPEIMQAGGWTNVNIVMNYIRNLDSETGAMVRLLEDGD
# [2] = target: T1, Cre recombinase (Bacteriophage P1); experiment: activity in cells; conditions: pSPORTLoxP yield estimated 5-10 fold lower than pSPORT in Cre-expressing cells; presumed Cre binding to loxP blocks replication; protein in cells; protein details: expressed from pZIP plasmid in E. coli DH10BZIP; only the site is given
sequence,measurement,setting,value
ATAACTTCGTATAATGTATGCTATACGAAGTTAT (double strand) [loxP site],activity on this sequence,[1],active
same,activity on this sequence,[2],active
